These are yes or no findings as the source states them, for the method shown. In cells and extracts the contact can be indirect. A yes stands for co-enrichment or nearness to the bait. Other partners may have been found. Tags and fused reporters may be left off the sequences shown.
Molecular target: T1, tf-NBR1 (tandem-fluorescent RFP-GFP fusion of NBR1) (UniProt Q14596)
T1 sequence: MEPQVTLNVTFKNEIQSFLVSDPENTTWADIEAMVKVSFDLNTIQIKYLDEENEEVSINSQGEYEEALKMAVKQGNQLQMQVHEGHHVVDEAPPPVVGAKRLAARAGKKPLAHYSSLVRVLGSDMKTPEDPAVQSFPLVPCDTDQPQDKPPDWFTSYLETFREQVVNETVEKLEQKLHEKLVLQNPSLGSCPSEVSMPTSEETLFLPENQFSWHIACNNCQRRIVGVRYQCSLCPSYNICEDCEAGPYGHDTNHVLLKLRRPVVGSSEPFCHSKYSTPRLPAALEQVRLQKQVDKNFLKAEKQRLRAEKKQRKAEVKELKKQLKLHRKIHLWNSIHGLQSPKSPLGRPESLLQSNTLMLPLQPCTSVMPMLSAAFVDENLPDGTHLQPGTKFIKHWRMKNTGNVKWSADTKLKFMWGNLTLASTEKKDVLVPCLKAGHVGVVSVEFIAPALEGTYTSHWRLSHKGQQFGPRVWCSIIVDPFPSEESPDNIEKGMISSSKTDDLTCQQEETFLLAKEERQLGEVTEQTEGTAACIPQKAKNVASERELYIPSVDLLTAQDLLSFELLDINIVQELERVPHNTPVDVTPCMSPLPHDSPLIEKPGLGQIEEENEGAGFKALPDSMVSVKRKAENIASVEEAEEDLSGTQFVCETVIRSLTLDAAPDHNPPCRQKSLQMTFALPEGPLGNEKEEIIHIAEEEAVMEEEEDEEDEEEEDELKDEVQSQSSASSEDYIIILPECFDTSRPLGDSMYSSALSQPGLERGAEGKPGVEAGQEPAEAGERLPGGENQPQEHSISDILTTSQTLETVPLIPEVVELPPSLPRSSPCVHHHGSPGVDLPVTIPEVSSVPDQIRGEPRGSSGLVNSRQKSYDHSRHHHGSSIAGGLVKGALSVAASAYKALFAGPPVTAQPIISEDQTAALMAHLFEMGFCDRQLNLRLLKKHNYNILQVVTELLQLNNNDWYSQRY
Assay: affinity purification with mass spectrometry; tf-NBR1 co-immunoprecipitate analysed by label-free quantitative LC-MS/MS (iBAQ), fold-enrichment

Amino acid sequences for entries named in this document (tags omitted).
UniProt P10155: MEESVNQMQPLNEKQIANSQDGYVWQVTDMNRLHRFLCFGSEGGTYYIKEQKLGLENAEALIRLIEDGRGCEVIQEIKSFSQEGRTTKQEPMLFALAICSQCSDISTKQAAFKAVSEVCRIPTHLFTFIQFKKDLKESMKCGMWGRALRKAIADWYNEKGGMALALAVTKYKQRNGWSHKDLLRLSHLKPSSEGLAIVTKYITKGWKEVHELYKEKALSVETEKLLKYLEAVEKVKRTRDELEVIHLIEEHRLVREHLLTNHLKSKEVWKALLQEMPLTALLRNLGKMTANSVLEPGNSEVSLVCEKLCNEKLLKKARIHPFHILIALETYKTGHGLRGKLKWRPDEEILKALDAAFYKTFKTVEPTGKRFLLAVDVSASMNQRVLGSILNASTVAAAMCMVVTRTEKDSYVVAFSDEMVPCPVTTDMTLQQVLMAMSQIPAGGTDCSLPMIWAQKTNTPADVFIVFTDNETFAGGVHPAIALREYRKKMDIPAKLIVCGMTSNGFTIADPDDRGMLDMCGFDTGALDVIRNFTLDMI

Substance	binding
TAX1BP1, endogenous (from UniProt Q86VP1-1 1-789)	binds
TROVE2, endogenous (from UniProt P10155 1-538)	binds

— publication PMC7737610
